Measured values taken from the supplement of paper PMC11438910.
Some of the results follow. Most of these values are background signal.

Columns and labels:
Assay in all cases: fluorescence intensity of antibody binding to polysaccharide-coupled beads; higher = stronger binding
[1] = target: pneumococcal polysaccharide Pn23F
[2] = target: pneumococcal polysaccharide Pn24A
[3] = target: pneumococcal polysaccharide Pn24B
[4] = target: pneumococcal polysaccharide Pn24F
[5] = target: pneumococcal polysaccharide Pn25A
[6] = target: pneumococcal polysaccharide Pn25F
[7] = target: pneumococcal polysaccharide Pn27
[8] = target: pneumococcal polysaccharide Pn28A
[9] = target: pneumococcal polysaccharide Pn28F
[10] = target: pneumococcal polysaccharide Pn29
[11] = target: pneumococcal polysaccharide Pn3
[12] = target: pneumococcal polysaccharide Pn31
[13] = target: pneumococcal polysaccharide Pn32A
[14] = target: pneumococcal polysaccharide Pn32F
[15] = target: pneumococcal polysaccharide Pn33A
[16] = target: pneumococcal polysaccharide Pn33B
[17] = target: pneumococcal polysaccharide Pn33C
[18] = target: pneumococcal polysaccharide Pn33D
[19] = target: pneumococcal polysaccharide Pn33F
[20] = target: pneumococcal polysaccharide Pn34
[21] = target: pneumococcal polysaccharide Pn35A
[22] = target: pneumococcal polysaccharide Pn35B
[23] = target: pneumococcal polysaccharide Pn35C
[24] = antibody concentration 2.8593 ng/mL
[25] = antibody concentration 15.2894 ng/mL
[26] = antibody concentration 81.7561 ng/mL
[27] = antibody concentration 437.17 ng/mL
[28] = antibody concentration 2337.65 ng/mL
[29] = antibody concentration 12500 ng/mL
[30] = antibody concentration 0.1 ng/mL
[31] = antibody concentration 0.534724 ng/mL

B1: 4-173.3 (protein)
chain 1: QLQLQESGPGLVKPSETLSLTCAVSGGSINNNYWSWIRQPPGKGLEWIGRIFGSGGSTDYNPSLKSRVTISTDTSKTQFSLNLNSVTAADTAVYFCARGSYQVDYWGQGVLVTVSS
chain 2: QAALTQPPSMSGSPGQSVTISCTGTSSDIGGWNRVSWYQQYPGKAPKLMIYEVSKRPSGVSDRFSGSKSGNTASLTISGLQAEDEADYYCSSYVHINNALFGGGTRLTVL
Binder B1 has a fluorescence intensity [1, 24] of 17 MFI, a fluorescence intensity [1, 25] of 18 MFI and a fluorescence intensity [1, 26] of 16.2 MFI. The fluorescence intensity [1, 27] was 18 MFI, the fluorescence intensity [1, 28] was 19.5 MFI and the fluorescence intensity [1, 29] was 30 MFI. The fluorescence intensity [2, 30] was 16 MFI, the fluorescence intensity [2, 31] was 15.5 MFI and the fluorescence intensity [2, 24] was 15.5 MFI. The fluorescence intensity [2, 25] was 15 MFI, the fluorescence intensity [2, 26] was 13 MFI and the fluorescence intensity [2, 27] was 16.5 MFI. The fluorescence intensity [2, 28] was 17 MFI, the fluorescence intensity [2, 29] was 22 MFI and the fluorescence intensity [3, 30] was 16.5 MFI. The fluorescence intensity [3, 31] was 16.8 MFI, the fluorescence intensity [3, 24] was 17 MFI and the fluorescence intensity [3, 25] was 16.5 MFI. It also gave a fluorescence intensity [3, 26] of 17 MFI, a fluorescence intensity [3, 27] of 18 MFI and a fluorescence intensity [3, 28] of 19.2 MFI. For the same binder, the fluorescence intensity [3, 29] was 33.5 MFI, the fluorescence intensity [4, 30] was 16.8 MFI and the fluorescence intensity [4, 31] was 15.2 MFI. For the same binder, the fluorescence intensity [4, 24] was 16.5 MFI, the fluorescence intensity [4, 25] was 16 MFI and the fluorescence intensity [4, 26] was 15 MFI. The fluorescence intensity [4, 27] was 18.8 MFI, the fluorescence intensity [4, 28] was 22.8 MFI and the fluorescence intensity [4, 29] was 34.5 MFI. It also gave a fluorescence intensity [5, 30] of 22 MFI, a fluorescence intensity [5, 31] of 23 MFI and a fluorescence intensity [5, 24] of 24 MFI. It also gave a fluorescence intensity [5, 25] of 23.2 MFI, a fluorescence intensity [5, 26] of 24 MFI and a fluorescence intensity [5, 27] of 24 MFI. The fluorescence intensity [5, 28] was 25.5 MFI, the fluorescence intensity [5, 29] was 35 MFI and the fluorescence intensity [6, 30] was 27.5 MFI. The fluorescence intensity [6, 31] was 28.8 MFI, the fluorescence intensity [6, 24] was 29.5 MFI and the fluorescence intensity [6, 25] was 29.8 MFI. For the same binder, the fluorescence intensity [6, 26] was 31 MFI, the fluorescence intensity [6, 27] was 28.5 MFI and the fluorescence intensity [6, 28] was 30.5 MFI. It also gave a fluorescence intensity [6, 29] of 37 MFI, a fluorescence intensity [7, 30] of 15.5 MFI and a fluorescence intensity [7, 31] of 16 MFI. For the same binder, the fluorescence intensity [7, 24] was 17 MFI, the fluorescence intensity [7, 25] was 17 MFI and the fluorescence intensity [7, 26] was 15.8 MFI. It also gave a fluorescence intensity [7, 27] of 17 MFI, a fluorescence intensity [7, 28] of 23.5 MFI and a fluorescence intensity [7, 29] of 62 MFI. The fluorescence intensity [8, 30] was 26.2 MFI, the fluorescence intensity [8, 31] was 23.8 MFI and the fluorescence intensity [8, 24] was 26 MFI. For the same binder, the fluorescence intensity [8, 25] was 24.5 MFI, the fluorescence intensity [8, 26] was 25.8 MFI and the fluorescence intensity [8, 27] was 26 MFI. It also gave a fluorescence intensity [8, 28] of 27.5 MFI, a fluorescence intensity [8, 29] of 34.5 MFI and a fluorescence intensity [9, 30] of 27 MFI. It also gave a fluorescence intensity [9, 31] of 28 MFI, a fluorescence intensity [9, 24] of 29 MFI and a fluorescence intensity [9, 25] of 28 MFI. The fluorescence intensity [9, 26] was 27.2 MFI, the fluorescence intensity [9, 27] was 28.2 MFI and the fluorescence intensity [9, 28] was 31.8 MFI. For the same binder, the fluorescence intensity [9, 29] was 49.5 MFI, the fluorescence intensity [10, 30] was 16.5 MFI and the fluorescence intensity [10, 31] was 14.5 MFI. It also gave a fluorescence intensity [10, 24] of 14.5 MFI, a fluorescence intensity [10, 25] of 15.5 MFI and a fluorescence intensity [10, 26] of 15.5 MFI. The fluorescence intensity [10, 27] was 18 MFI, the fluorescence intensity [10, 28] was 22 MFI and the fluorescence intensity [10, 29] was 47 MFI. For the same binder, the fluorescence intensity [11, 30] was 15 MFI, the fluorescence intensity [11, 31] was 20.2 MFI and the fluorescence intensity [11, 24] was 57.2 MFI. The fluorescence intensity [11, 25] was 204 MFI, the fluorescence intensity [11, 26] was 816 MFI and the fluorescence intensity [11, 27] was 3180 MFI. For the same binder, the fluorescence intensity [11, 28] was 11700 MFI, the fluorescence intensity [11, 29] was 8330 MFI and the fluorescence intensity [12, 30] was 12.5 MFI. It also gave a fluorescence intensity [12, 31] of 13.8 MFI, a fluorescence intensity [12, 24] of 14 MFI and a fluorescence intensity [12, 25] of 14 MFI. It also gave a fluorescence intensity [12, 26] of 14 MFI, a fluorescence intensity [12, 27] of 13.5 MFI and a fluorescence intensity [12, 28] of 17.5 MFI. For the same binder, the fluorescence intensity [12, 29] was 44.5 MFI, the fluorescence intensity [13, 30] was 15 MFI and the fluorescence intensity [13, 31] was 15.8 MFI. The fluorescence intensity [13, 24] was 17.2 MFI, the fluorescence intensity [13, 25] was 17.5 MFI and the fluorescence intensity [13, 26] was 16.5 MFI. The fluorescence intensity [13, 27] was 18.2 MFI, the fluorescence intensity [13, 28] was 19.5 MFI and the fluorescence intensity [13, 29] was 34.5 MFI. The fluorescence intensity [14, 30] was 24.2 MFI, the fluorescence intensity [14, 31] was 26 MFI and the fluorescence intensity [14, 24] was 27.5 MFI. The fluorescence intensity [14, 25] was 25.8 MFI, the fluorescence intensity [14, 26] was 25 MFI and the fluorescence intensity [14, 27] was 29 MFI. For the same binder, the fluorescence intensity [14, 28] was 32.5 MFI, the fluorescence intensity [14, 29] was 49.5 MFI and the fluorescence intensity [15, 30] was 17 MFI. For the same binder, the fluorescence intensity [15, 31] was 16.8 MFI, the fluorescence intensity [15, 24] was 18.5 MFI and the fluorescence intensity [15, 25] was 16.8 MFI. It also gave a fluorescence intensity [15, 26] of 16.5 MFI, a fluorescence intensity [15, 27] of 16.2 MFI and a fluorescence intensity [15, 28] of 27 MFI. The fluorescence intensity [15, 29] was 154 MFI, the fluorescence intensity [16, 30] was 16.5 MFI and the fluorescence intensity [16, 31] was 17.2 MFI. The fluorescence intensity [16, 24] was 17.2 MFI, the fluorescence intensity [16, 25] was 18 MFI and the fluorescence intensity [16, 26] was 17.8 MFI. For the same binder, the fluorescence intensity [16, 27] was 17.5 MFI, the fluorescence intensity [16, 28] was 17.2 MFI and the fluorescence intensity [16, 29] was 21.5 MFI. For the same binder, the fluorescence intensity [17, 30] was 20 MFI, the fluorescence intensity [17, 31] was 19.5 MFI and the fluorescence intensity [17, 24] was 17.5 MFI. The fluorescence intensity [17, 25] was 18.8 MFI, the fluorescence intensity [17, 26] was 19 MFI and the fluorescence intensity [17, 27] was 19 MFI. For the same binder, the fluorescence intensity [17, 28] was 20.2 MFI, the fluorescence intensity [17, 29] was 30 MFI and the fluorescence intensity [18, 30] was 17.8 MFI. For the same binder, the fluorescence intensity [18, 31] was 16.5 MFI, the fluorescence intensity [18, 24] was 16 MFI and the fluorescence intensity [18, 25] was 15.5 MFI. For the same binder, the fluorescence intensity [18, 26] was 14.8 MFI, the fluorescence intensity [18, 27] was 14.5 MFI and the fluorescence intensity [18, 28] was 14.5 MFI. The fluorescence intensity [18, 29] was 21.5 MFI, the fluorescence intensity [19, 30] was 11.5 MFI and the fluorescence intensity [19, 31] was 12.5 MFI. For the same binder, the fluorescence intensity [19, 24] was 12 MFI, the fluorescence intensity [19, 25] was 12.5 MFI and the fluorescence intensity [19, 26] was 13.5 MFI. It also gave a fluorescence intensity [19, 27] of 14.5 MFI, a fluorescence intensity [19, 28] of 20.5 MFI and a fluorescence intensity [19, 29] of 65.5 MFI. It also gave a fluorescence intensity [20, 30] of 13.5 MFI, a fluorescence intensity [20, 31] of 13.5 MFI and a fluorescence intensity [20, 24] of 14 MFI. The fluorescence intensity [20, 25] was 12.5 MFI, the fluorescence intensity [20, 26] was 13.5 MFI and the fluorescence intensity [20, 27] was 14.5 MFI. For the same binder, the fluorescence intensity [20, 28] was 13.5 MFI, the fluorescence intensity [20, 29] was 16 MFI and the fluorescence intensity [21, 30] was 17 MFI. The fluorescence intensity [21, 31] was 17 MFI, the fluorescence intensity [21, 24] was 16 MFI and the fluorescence intensity [21, 25] was 17 MFI. It also gave a fluorescence intensity [21, 26] of 15 MFI, a fluorescence intensity [21, 27] of 15.5 MFI and a fluorescence intensity [21, 28] of 19.5 MFI. The fluorescence intensity [21, 29] was 40.5 MFI, the fluorescence intensity [22, 30] was 17 MFI and the fluorescence intensity [22, 31] was 18 MFI. It also gave a fluorescence intensity [22, 24] of 18.2 MFI, a fluorescence intensity [22, 25] of 19.5 MFI and a fluorescence intensity [22, 26] of 15.5 MFI. For the same binder, the fluorescence intensity [22, 27] was 18 MFI, the fluorescence intensity [22, 28] was 18.5 MFI and the fluorescence intensity [22, 29] was 37 MFI. It also gave a fluorescence intensity [23, 30] of 21 MFI, a fluorescence intensity [23, 31] of 19 MFI and a fluorescence intensity [23, 24] of 18.8 MFI. It also gave a fluorescence intensity [23, 25] of 18.5 MFI, a fluorescence intensity [23, 26] of 18.5 MFI and a fluorescence intensity [23, 27] of 19.5 MFI.
